These are yes or no findings as the source states them, for the method shown. Binding seen in cells or lysates may run through a third protein. Some entries that bind do so weakly or less than the wild type.
Columns and labels:
[1] = target: Flag-IGF2R (insulin-like growth factor-2 receptor) (UniProt P11717); assay: co-IP; 293T cells co-transfected with HA-Trop2 (or control HA-PCMV) and Flag-IGF2R (or control Flag-pcDNA3.1), 48 h, lysed in RIPA buffer; Dynabeads with anti-Flag antibody or control IgG; western blot
[2] = target: Trop2, endogenous in PC-9/GR cells (human (endogenous in PC-9/GR)) (UniProt P09758); assay: co-IP; PC-9/GR cell lysates immunoprecipitated with anti-Trop2 antibody; IGF2R detected with anti-IGF2R antibody (the text calls it a pull-down assay)

Protein sequences, listed by entry. Tags and fused reporters are not part of them. Residues count along the entry.
UniProt P11717, residues 41-2491: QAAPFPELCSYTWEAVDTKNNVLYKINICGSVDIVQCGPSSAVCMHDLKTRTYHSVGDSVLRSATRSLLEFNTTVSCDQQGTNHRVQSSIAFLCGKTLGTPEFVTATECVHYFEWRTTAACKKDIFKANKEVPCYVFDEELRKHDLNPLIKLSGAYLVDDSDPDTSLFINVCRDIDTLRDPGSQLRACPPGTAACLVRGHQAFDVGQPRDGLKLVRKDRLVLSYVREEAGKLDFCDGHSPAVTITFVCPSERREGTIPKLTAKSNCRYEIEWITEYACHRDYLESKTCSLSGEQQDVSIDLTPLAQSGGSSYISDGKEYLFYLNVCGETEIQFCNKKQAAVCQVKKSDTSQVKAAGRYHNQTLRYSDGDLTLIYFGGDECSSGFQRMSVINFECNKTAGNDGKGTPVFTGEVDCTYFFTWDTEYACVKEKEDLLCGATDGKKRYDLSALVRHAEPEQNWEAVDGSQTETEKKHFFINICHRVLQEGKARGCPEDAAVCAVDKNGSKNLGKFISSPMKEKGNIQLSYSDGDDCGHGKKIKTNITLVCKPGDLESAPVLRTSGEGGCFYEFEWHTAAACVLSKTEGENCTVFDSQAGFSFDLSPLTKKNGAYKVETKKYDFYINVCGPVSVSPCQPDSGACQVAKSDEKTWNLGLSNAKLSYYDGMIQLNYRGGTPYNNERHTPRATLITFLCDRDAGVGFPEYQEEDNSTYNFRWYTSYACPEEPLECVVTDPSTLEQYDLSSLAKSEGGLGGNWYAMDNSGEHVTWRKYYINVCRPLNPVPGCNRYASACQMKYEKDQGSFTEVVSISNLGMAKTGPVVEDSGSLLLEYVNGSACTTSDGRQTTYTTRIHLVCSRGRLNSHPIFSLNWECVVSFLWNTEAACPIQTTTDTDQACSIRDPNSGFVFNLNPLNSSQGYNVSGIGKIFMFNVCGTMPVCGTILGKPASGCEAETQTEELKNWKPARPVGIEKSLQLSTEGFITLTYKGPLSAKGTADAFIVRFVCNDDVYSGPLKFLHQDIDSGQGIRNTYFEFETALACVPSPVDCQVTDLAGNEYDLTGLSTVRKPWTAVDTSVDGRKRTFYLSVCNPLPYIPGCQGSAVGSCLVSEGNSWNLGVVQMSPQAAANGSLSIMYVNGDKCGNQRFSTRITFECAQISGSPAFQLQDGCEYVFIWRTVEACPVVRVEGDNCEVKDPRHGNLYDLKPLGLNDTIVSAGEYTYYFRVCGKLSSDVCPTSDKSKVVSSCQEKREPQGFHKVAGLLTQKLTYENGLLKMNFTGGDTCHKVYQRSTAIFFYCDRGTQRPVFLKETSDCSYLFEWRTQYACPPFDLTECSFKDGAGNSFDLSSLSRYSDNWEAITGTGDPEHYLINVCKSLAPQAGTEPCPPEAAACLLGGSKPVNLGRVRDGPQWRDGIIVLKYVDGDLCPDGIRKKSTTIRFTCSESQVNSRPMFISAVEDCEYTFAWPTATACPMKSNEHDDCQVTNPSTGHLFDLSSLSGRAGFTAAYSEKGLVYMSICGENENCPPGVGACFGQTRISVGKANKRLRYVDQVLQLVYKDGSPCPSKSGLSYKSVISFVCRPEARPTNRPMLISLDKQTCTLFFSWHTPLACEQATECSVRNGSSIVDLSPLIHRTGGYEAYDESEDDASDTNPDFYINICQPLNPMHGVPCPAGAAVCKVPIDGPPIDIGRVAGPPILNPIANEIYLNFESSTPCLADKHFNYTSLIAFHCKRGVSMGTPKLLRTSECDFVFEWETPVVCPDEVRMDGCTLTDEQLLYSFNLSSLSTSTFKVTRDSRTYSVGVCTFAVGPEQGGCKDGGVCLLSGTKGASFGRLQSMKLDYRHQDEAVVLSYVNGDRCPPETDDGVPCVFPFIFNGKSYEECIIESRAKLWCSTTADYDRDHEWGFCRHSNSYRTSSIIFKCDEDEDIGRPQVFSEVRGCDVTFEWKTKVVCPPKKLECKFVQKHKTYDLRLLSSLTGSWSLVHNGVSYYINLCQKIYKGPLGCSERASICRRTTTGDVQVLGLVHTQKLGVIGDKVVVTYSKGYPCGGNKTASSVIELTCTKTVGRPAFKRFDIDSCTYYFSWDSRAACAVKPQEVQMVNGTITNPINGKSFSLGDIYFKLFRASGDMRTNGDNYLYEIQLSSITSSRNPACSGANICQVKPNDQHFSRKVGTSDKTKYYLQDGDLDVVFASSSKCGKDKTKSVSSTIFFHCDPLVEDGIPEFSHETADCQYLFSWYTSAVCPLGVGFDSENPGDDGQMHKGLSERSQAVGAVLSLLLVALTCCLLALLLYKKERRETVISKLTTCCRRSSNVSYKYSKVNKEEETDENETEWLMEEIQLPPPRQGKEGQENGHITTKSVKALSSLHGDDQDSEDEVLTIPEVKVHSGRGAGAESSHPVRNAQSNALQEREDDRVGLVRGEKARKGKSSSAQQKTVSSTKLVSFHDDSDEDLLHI
UniProt P09758, residues 27-323: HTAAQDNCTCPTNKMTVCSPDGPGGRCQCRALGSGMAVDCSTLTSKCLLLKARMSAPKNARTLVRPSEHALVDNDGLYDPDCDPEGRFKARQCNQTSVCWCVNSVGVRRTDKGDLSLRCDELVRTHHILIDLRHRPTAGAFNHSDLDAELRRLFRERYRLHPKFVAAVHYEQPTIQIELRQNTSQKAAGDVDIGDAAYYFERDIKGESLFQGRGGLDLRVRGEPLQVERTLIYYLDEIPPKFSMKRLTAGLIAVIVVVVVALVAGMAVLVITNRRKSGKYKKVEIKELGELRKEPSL

binding [1] | binding [2] | Substance
binds | – | HA-Trop2 (human trophoblast cell surface antigen 2) (from UniProt P09758 27-323)
– | binds | IGF2R, endogenous in PC-9/GR cells (from UniProt P11717 41-2491) (receptor)
